From PubChem BioAssay AID488859 (Sanford-Burnham Center for Chemical Genomics, 2010)
Screen size: about 1,400 compounds; about 970 (69%) were called active. So high a share suggests a set chosen from earlier hits. The shares of active, inactive and inconclusive entries below differ from those in the screen. Rule as the data show it: active = inhibition above about 45%; inconclusive = no clear call, values can overlap the other calls; inactive = below that.

By UniProt entry, the sequences of proteins in these tests, tags left out. Where a name states a change or a piece, a line headed by the entry shows the natural chain unless it says otherwise.
UniProt P61088: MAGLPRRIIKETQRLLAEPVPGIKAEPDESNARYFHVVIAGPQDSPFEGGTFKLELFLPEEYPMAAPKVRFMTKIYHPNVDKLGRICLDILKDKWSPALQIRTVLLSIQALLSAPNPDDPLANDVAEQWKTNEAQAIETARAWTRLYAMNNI

Biological target: Ubiquitin-conjugating enzyme E2 N (Homo sapiens) (UniProt P61088)
Assay: UBC13 polyubiquitination inhibitors, single-point retest, confirmation, biochemical, TR-FRET, single concentration (AID 488859)
Details: at 10 µM, stronger effect = higher value

inhibition, inactive:
Cc1nc(N)sc1C(=O)NN 34.8%
CCN(CC)CCC(c1ccc(N(C)C)cc1)c1c(OC)cc(OC)c2c(-c3ccccc3)cc(=O)oc12 (configuration not stated) 25.6%
CCCCCCSc1cc(-c2nc3cc(C)ccn3c2NC2CCCCC2)ccc1OC 29.8%
CCOC(=O)c1ccc(NC(=O)c2nc[nH]c2C(=O)NCC(=O)OC(C)(C)C)cc1 27.8%
CCOC(=O)c1ccc(NC(=O)c2nc[nH]c2C(=O)N[C@@H](C)C(=O)OC(C)(C)C)cc1 37.5%
CCn1c(=O)c2cc(C(=O)NCCN(C)C)sc2c2ccccc21 35.2%
O=S(=O)(NC1CCCCC1)c1ccc(Cl)nc1 9.6%
COc1ccc2sc(-c3ccccc3OC)c(C#Cc3cncn3C)c2c1 38.4%
Cc1cc(-c2nnc(SCC(=O)Nc3nc(-c4ccc(Cl)cc4)cs3)o2)no1 -11.4%
CNCCC(Oc1ccc(C(F)(F)F)cc1)c1ccccc1 (configuration not stated) 36.3%
NS(=O)(=O)c1ccc(NC(=O)N2c3ccccc3Sc3ccccc32)cc1 -2.1%
CC[C@H]1CN2CCc3cc(OC)c(OC)cc3C2C[C@@H]1C[C@H]1NCCc2cc(OC)c(OC)cc21 (some centres not stated) 10.5%

inhibition, active:
CN(C)CCCN(C(=O)c1ccc(S(=O)(=O)N2CCCC2)cc1)c1nc2ccc(Br)cc2s1 97.4%
C#CCOCCOCCOCCNc1nc(N2CCN(C(=O)C([C@@H](C)O)n3cc([C@@H](N)CCCCN)nn3)CC2)nc(N2CCN(C(=O)[C@H](CCCN=C(N)N)n3cc(C(N)[C@@H](C)CC)nn3)CC2)n1 (some centres not stated) 111%
CCCN1CCN(CCCNC(=O)c2cc3c(s2)-c2c(C)cccc2OC3)CC1 57%
CCC(C)(C)NC(=O)CN(C(=O)c1snc(C(N)=O)c1N)c1ccc2nc(C)sc2c1 83%
CCOc1ccc(-c2[nH]ncc2Oc2cccc(OC)c2)c(O)c1 60.5%
C/C(Cl)=C\Cn1c(O)c(N=NC(N)=S)c2ccccc21 102%
O=C(CSCc1ccc([N+](=O)[O-])cc1)NN=C1CCCCCC1 105%
Cc1c(C)n(Cc2ccccc2)c2ncnc(N)c12 61.1%
C[C@@H]1O[C@@H](O[C@H]2[C@H](Oc3cc(O)c4c(c3)OC(c3ccc(O)cc3)CC4=O)O[C@H](CO)[C@@H](O)[C@@H]2O)[C@H](O)[C@H](O)[C@H]1O (some centres not stated) 100%
COc1cccc(NC(=O)c2cnc(SCC(=O)NCc3ccc4c(c3)OCO4)n(C)c2=O)c1 49.8%

Three entries out of the list, arranged by molar mass, descending.
inhibition, active:
C#CCOCCOCCOCCNc1nc(N2CCN(C(=O)C([C@@H](C)O)n3cc([C@@H](N)CCCCN)nn3)CC2)nc(N2CCN(C(=O)[C@H](CCCN=C(N)N)n3cc(C(N)[C@@H](C)CC)nn3)CC2)n1 (some centres not stated) 111%
C/C(Cl)=C\Cn1c(O)c(N=NC(N)=S)c2ccccc21 102%
Cc1c(C)n(Cc2ccccc2)c2ncnc(N)c12 61.1%

Following part.

inhibition, inconclusive:
CC(=NCc1ccco1)c1c(C)[nH]n(-c2nc3ccccc3s2)c1=O 51.7%
CCOC(=O)c1nn(-c2ccccc2)c(=O)cc1OCC(=O)Nc1ccccc1OCC 53.8%
CC[C@H](C)[C@@H](NC(=O)O[C@@H]1C(=O)c2cc(OC)ccc2O[C@H]1c1ccc(OC)c(Br)c1)C(=O)OC 51%
CCN1CCN(C(=O)CSc2cc(=O)n(CC)c3ccccc23)CC1 61.6%
CCn1c(=O)cc(SCC(=O)NCCCN2CCN(c3ccc(F)cc3)CC2)c2ccccc21 96.7%
O=C1c2cccc3cccc(c23)C(=O)N1CCc1ccccc1 57%
COc1ccc(C2CC(=O)c3cnc(N4CCc5ccccc54)nc3C2)cc1OC (configuration not stated) 48%
COc1ccnc2c1c(=O)n(Cc1ccc(Cl)cc1)c(=O)n2C 81.4%
CCn1c(=O)cc(SCC(=O)NCCCN2CCN(c3ccccc3F)CC2)c2ccccc21 75%
COc1ccc(-c2sc3ccccc3c2-c2ccc(OCCN3CCCCC3)cc2)cc1 82.5%
Oc1cccc(NC(=S)N=Nc2c(O)[nH]c3ccc(Br)cc23)c1 79%
O=C1NC2(CCCCCC2)N=C1c1ccc(Br)cc1 48.8%
COc1ccc(-n2nc(C(=O)NCc3cc(OC)ccc3OC)c3c4ccccc4n(C)c3c2=O)cc1 57.7%
CCOC(=O)c1cc(-c2ccc(OC)cc2)nc2c1c(C)nn2CCC#N 59.6%
CCc1cc2c(=O)n(-c3ccccc3)c(=S)[nH]c2s1 52.6%
CCOC(=O)c1sc2nc(C3CC3)cc(-c3ccc(OC)cc3)c2c1N 49.4%
COCCNc1nc2c(-c3cccc(C(F)(F)F)c3)nnn2c2ccccc12 46.7%
Cc1ccc(Cn2cc(C(=O)c3ccc(F)cc3)c(=O)c3cc4c(cc32)OCCO4)cc1 62.9%
Cc1ccccc1NC(=O)c1c(C)[nH]c(=S)c(C#N)c1-c1ccc(Cl)cc1 53.6%
COC(=O)c1c(-c2ccc(SC)cc2)sc2ccc(OC)cc12 48.6%
COc1cccc2sc3ccc(C#CC4(O)CCCCC4)cc3c(=O)c12 74.1%
C=CCNC(=S)Nc1sc2c(c1C(=O)OCC)CCN(C(=O)OCC)C2 61.1%
CN(Cc1ccccc1)C(=O)COC(=O)c1cc(-c2ccc(Cl)s2)nc2ccccc12 49.4%
O=C(NCCCN1CCCC1)c1ccc(Cn2c(=S)[nH]c3ccc(Br)cc3c2=O)cc1 61.1%
Cc1ccc(C)c(S(=O)(=O)c2c[nH]c(=S)[nH]c2=O)c1 51.7%
COc1cccc(-c2c(-c3cc(OC)cc(OC)c3)n(C)c3ccc(-c4ccc(OC)nc4)cc23)c1 51.6%
CSc1sc(-c2nnc(SCC(=O)Nc3ccccc3)n2C)c2c1C=CCC2 51.4%
CCOC(=O)c1nn(-c2ccccc2)c(=O)cc1OCC(=O)Nc1cc(C)ccc1OC 59.8%
CCn1c(=O)cc(SCC(=O)N2CCN(Cc3ccc4c(c3)OCO4)CC2)c2ccccc21 87.7%
CCC(=O)c1cc2c(C)cc(=O)oc2c(C)c1O 57.7%
